Source: PMC4654474
Results are given in words; binding and its absence hold for the method and conditions named. Binding seen in cells or lysates may run through a third protein. A result given as binding can be weak or reduced; the word gives no strength.

The chains behind the UniProt entries cited, without tags or fusion partners. Where a name states a change or a piece, a line headed by the entry shows the natural chain unless it says otherwise.
UniProt Q13153: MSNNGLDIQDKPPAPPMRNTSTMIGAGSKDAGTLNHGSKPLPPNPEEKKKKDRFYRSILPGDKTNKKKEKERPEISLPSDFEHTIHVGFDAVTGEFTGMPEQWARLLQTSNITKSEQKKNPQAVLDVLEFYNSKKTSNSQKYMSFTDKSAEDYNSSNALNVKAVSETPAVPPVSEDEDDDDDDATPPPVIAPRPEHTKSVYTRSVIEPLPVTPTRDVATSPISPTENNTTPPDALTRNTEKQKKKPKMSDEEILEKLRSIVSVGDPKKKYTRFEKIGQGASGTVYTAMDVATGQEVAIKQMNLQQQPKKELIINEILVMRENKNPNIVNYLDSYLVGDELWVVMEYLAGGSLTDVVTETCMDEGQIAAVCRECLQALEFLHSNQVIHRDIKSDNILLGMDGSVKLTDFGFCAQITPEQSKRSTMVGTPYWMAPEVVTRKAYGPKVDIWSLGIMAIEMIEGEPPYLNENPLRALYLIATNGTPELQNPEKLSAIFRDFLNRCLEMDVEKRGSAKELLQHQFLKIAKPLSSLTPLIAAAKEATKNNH
UniProt A0A8I6ABA8: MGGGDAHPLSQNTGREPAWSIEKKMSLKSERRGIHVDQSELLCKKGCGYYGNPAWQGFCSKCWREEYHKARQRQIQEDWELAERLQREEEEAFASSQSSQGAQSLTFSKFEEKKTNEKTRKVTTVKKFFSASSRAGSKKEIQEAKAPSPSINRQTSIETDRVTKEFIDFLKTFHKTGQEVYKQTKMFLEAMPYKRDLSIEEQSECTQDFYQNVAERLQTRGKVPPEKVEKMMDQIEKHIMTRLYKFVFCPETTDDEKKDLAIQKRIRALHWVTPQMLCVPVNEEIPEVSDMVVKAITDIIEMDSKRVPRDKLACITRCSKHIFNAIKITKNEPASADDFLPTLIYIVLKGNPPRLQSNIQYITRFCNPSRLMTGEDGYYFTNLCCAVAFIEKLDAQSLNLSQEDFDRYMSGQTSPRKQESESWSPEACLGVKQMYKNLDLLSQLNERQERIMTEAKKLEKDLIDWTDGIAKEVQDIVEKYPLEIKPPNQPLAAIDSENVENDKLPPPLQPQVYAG

How the values were obtained:
[1] = target: GST fusion protein containing the p21-binding domain of human Pak1 (human) (UniProt Q13153); assay: pull-down; GST fusion protein (Raf1-RBD, Pak1-PBD or Rhotekin-RBD) as bait on beads; lysates of PC12 cells or PC12 transfectants, unstimulated or stimulated by NGF (50 ng/ml; 0 or 15 min in Fig 6); bound proteins detected by Western blot; only the target purified
[2] = target: GST fusion protein containing the Ras-binding domain of Raf-1 (UniProt P04049); assay: as above

Row | Substance | binding [1] | binding [2]
1 | Cdc42 (active, GTP-bound; endogenous in PC12 cells) (from UniProt Q8CFN2 1-191) | binds | 
2 | RabGEF1 (rat, endogenous in PC12 cells) (from UniProt A0A8I6ABA8 1-515) | binds | binds
